Source: PubChem BioAssay AID1259308 (NCATS, 2017)
Purpose: 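Knock-downs that increase output of a recombinant reporter protein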 (primary screen). Cells: human HEK293 embryonic kidney cells stably expressing firefly luciferase (HEK-CMV-Luc2-Hygro). Knock-down reagent: single siRNA against human genes, 0.8 pmol siRNA per well. Duration: 72 h. Measurement: 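Luciferase light (ONE-Glo) measured on one replicate plate set and viability (CellTiter-Glo) on the other, scaled to a negative control siRNA, with robust z-scores and luciferase per cell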. Reading the numbers: total luciferase, z-score and total luciferase, % of control: higher = more reporter protein produced; luciferase per cell, z-score: higher = more reporter output per viable cell; viable cells, % of control: higher = more viable cells. Hit rule: 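An siRNA counts as active if its total luciferase robust z-score exceeds 3; genes with two or more such siRNAs out of three were retested with fresh siRNAs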. Calls: active = raised luciferase; inactive = no rise.
In all, the deposit lists about 59,000 reagents; this is an unselected part. About 1,510 of all reagents (2.6%) count as active. 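Calls use total luciferase alone and ignore viability, so some active siRNAs may act by altering cell number.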 Entries without a mark were called inactive. Reagents against one gene are numbered here.

no.	target	reagent	total luciferase, z-score	total luciferase, % of control	luciferase per cell, z-score	viable cells, % of control
1	SS18	1	-0.739	67.2	-1.04	98.8
2	SS18	2	-0.42	73.5	-0.893	104
3	SS18	3	-1.48	52.4	-1.66	90.5
4	KLHL11	1	0.837	98.5	0.109	107
5	KLHL11	2	-0.496	72	-0.647	95.4
6	KLHL11	3	1.33	108	0.116	118
7	LENG1	1	-0.546	71	-0.529	91.2
8	LENG1	2	0.0233	82.4	-0.153	95.8
9	LENG1	3	2.98	141	2.59	79.8
10	PLA2G15	1	-0.783	66.3	-1.41	108
11	PLA2G15	2	3.54 (active)	152	2.97	77.8
12	PLA2G15	3	0.236	86.6	0.13	93.5
13	STAT6	1	3.73 (active)	156	2.61	87.7
14	STAT6	2	2.12	124	1.51	93
15	STAT6	3	2.44	130	1.04	111
16	SUB1P1	1	-0.913	63.7	-1.03	93.4
17	SUB1P1	2	-0.519	71.6	-0.349	87.7
18	SUB1P1	3	0.655	94.9	0.656	89.3
19	TMEM240	1	1.28	107	1.74	75.9
20	TMEM240	2	-1.72	47.7	-1.46	78.3
21	TMEM240	3	-0.897	64.1	-0.702	86.1
22	PHGDH	1	0.757	96.9	0.511	94.7
23	PHGDH	2	-0.29	76.1	-0.117	87.7
24	PHGDH	3	-0.216	77.6	-0.753	106

Sorted by “total luciferase, % of control” (high to low): some entries from above
target	reagent	total luciferase, z-score	total luciferase, % of control	luciferase per cell, z-score	viable cells, % of control
STAT6	1	3.73 (active)	156	2.61	87.7
STAT6	2	2.12	124	1.51	93

Further reagents:
no.	target	reagent	total luciferase, z-score	total luciferase, % of control	luciferase per cell, z-score	viable cells, % of control
25	LBX1	1	-2.34	35.4	-1.63	60.9
26	LBX1	2	-0.0713	80.5	0.213	85
27	LBX1	3	0.997	102	0.886	90
28	SHOX	1	-0.409	73.7	-0.84	103
29	SHOX	2	-1	62	-0.987	89.8
30	SHOX	3	-1.38	54.5	-0.0668	62
31	TMEM185A	1	0.198	85.8	0.0594	94.4
32	TMEM185A	2	1.96	121	2.1	77.7
33	TMEM185A	3	0.0726	83.3	0.658	78.3
34	CYP2F1	1	-0.276	76.4	-0.0623	86.8
35	CYP2F1	2	1.32	108	0.634	102
36	CYP2F1	3	-0.571	70.5	-0.547	91
37	H3-4	1	-0.566	70.6	0.756	64.7
38	H3-4	2	-1.27	56.6	-1.01	82.6
39	H3-4	3	-0.676	68.4	-0.657	90.9
